Measurements: patent US20110092558A1, “NOVEL MICROBIOCIDES” (SYNGENTA CROP PROTECTION, INC., priority 2008, published 2011)
Some entries share one result that the patent states for a list of compounds.

Key:
Mycosphaerella arachidis = test: Action against Mycosphaerella arachidis (early leaf spot of groundnut) - fungal growth assay; format: cell-based; details: 0.02% active ingredient; PDB nutrient broth, 24° C.; measured photometrically after 6-7 days
Description: (§1) Action Against Mycosphaerella arachidis (Early Leaf Spot of Groundnut Cercospora Arachidicola [Anamorph])—Fungal Growth Assay Conidia of the fungus from cryogenic storage are directly mixed into nutrient broth (PDB potato dextrose broth). After placing a (DMSO) solution of the test compounds (0.02% active ingredient) into a microtiter plate (96-well format) the nutrient broth containing the fungal spores is added. The test plates are incubated at 24° C. and the inhibition of growth is measured photometrically after 6-7 days. The activity of a compound is expressed as fungal growth inhibition. Compounds 1.001, 1.004, 1.052, 1.069, 1.134, 1.171, 1.182 and 1.197 show good activity in this test (at least 50% inhibition).

Monographella nivalis = test: Action against Monographella nivalis (snow mould) - fungal growth assay; format: cell-based; details: 0.02% active ingredient; PDB nutrient broth, 24° C.; measured photometrically after 72 hrs
Description: as §1, with “Monographella nivalis (Anamorph: Fusarium nivale, Microdochium nivale; Snow Mould)—Fungal” for “Mycosphaerella arachidis (Early Leaf Spot of Groundnut Cercospora Arachidicola [Anamorph])—Fungal”, “DMSO-solution” for “(DMSO) solution”, “72 hrs.” for “6-7 days. The activity of a compound is expressed as fungal growth inhibition.”

[1] = tested on: Erysiphe graminis f.sp. Tritici; test: Action against Erysiphe graminis f.sp. tritici (wheat powdery mildew), wheat leaf segments, preventive; format: in vivo; details: wheat leaf segments sprayed with 0.02% active ingredient; assessed 7 days after inoculation
Description: (§2) Action Against Erysiphe graminis f.sp. Tritici (Wheat Powdery Mildew) Wheat leaf segments are placed on agar in multiwell plates (24-well format) and sprayed with test solutions (0.02% active ingredient). After drying, the leaf disks are inoculated with a spore suspension of the fungus. After appropriate incubation the activity of a compound is assessed 7 days after inoculation as preventive fungicidal activity. Compounds 1.001, 1.004, 1.052, 1.069, 1.134, and 1.182 show good activity in this test (at least 50% inhibition).

Botrytis cinerea = test: Action against Botrytis cinerea - fungal growth assay; format: cell-based; details: 0.02% active ingredient; PDB nutrient broth, 24° C.; measured photometrically after 3-4 days
Description: as §1, with “Botrytis cinerea—Fungal” for “Mycosphaerella arachidis (Early Leaf Spot of Groundnut Cercospora Arachidicola [Anamorph])—Fungal”, “3-4” for “6-7”, “1.052,” for “1.052, 1.069,”, “1.134,” for “1.134, 1.171,”

Pyrenophora teres = test: Action against Pyrenophora teres (net blotch) on barley leaf segments, preventive; format: in vivo; details: barley leaf segments sprayed with 0.02% active ingredient; assessed 4 days after inoculation
Description: as §2, with “Pyrenophora teres (Net Blotch) on Barley Barley” for “Erysiphe graminis f.sp. Tritici (Wheat Powdery Mildew) Wheat”, “4” for “7”, “1.134, 1.171, 1.182” for “1.134,”, “1.197” for “1.182”

Septoria tritici = test: Action against Septoria tritici - fungal growth assay; format: cell-based; details: 0.02% active ingredient; PDB nutrient broth, 24° C.; determined photometrically after 72 hrs
Description: as §1, with “Septoria tritici—Fungal” for “Mycosphaerella arachidis (Early Leaf Spot of Groundnut Cercospora Arachidicola [Anamorph])—Fungal”, “determined” for “measured”, “72 hrs.” for “6-7 days.”

Leptosphaeria nodorum = test: Action against Leptosphaeria nodorum (Septoria nodorum; glume blotch) on wheat leaf segments, preventive; format: in vivo; details: wheat leaf segments sprayed with 0.02% active ingredient; assessed 4 days after inoculation
Description: as §2, with “Leptosphaeria nodorum (Septoria nodorum; Glume Blotch) on Wheat” for “Erysiphe graminis f.sp. Tritici (Wheat Powdery Mildew)”, “4” for “7”, “1.004,” for “1.004, 1.052,”

CC(CCc1ccc(Cl)cc1Cl)NC(=O)c1cn(C)nc1C(F)F (stereo not drawn) [Compound 1.001]
at least 50%: fungal growth inhibition (Mycosphaerella arachidis) | inhibition of growth (Monographella nivalis) | preventive fungicidal activity (inhibition) [1] | fungal growth inhibition (Botrytis cinerea) | preventive fungicidal activity (inhibition) (Pyrenophora teres) | fungal growth inhibition (Septoria tritici) | preventive fungicidal activity (inhibition) (Leptosphaeria nodorum)

CC(CCOc1c(Cl)cc(Cl)cc1Cl)NC(=O)c1cn(C)nc1C(F)F (stereo not drawn) [Compound 1.134]
at least 50%: fungal growth inhibition (Mycosphaerella arachidis) | inhibition of growth (Monographella nivalis) | preventive fungicidal activity (inhibition) [1] | fungal growth inhibition (Botrytis cinerea) | preventive fungicidal activity (inhibition) (Pyrenophora teres) | fungal growth inhibition (Septoria tritici) | preventive fungicidal activity (inhibition) (Leptosphaeria nodorum)

Cc1cccc(C)c1OCCC(C)NC(=O)c1cn(C)nc1C(F)F (stereo not drawn) [Compound 1.171]
at least 50%: fungal growth inhibition (Mycosphaerella arachidis) | inhibition of growth (Monographella nivalis) | preventive fungicidal activity (inhibition) (Pyrenophora teres) | fungal growth inhibition (Septoria tritici)
